PubChem BioAssay AID1224828 | NIAID – 2016
In all, the deposit lists about 17,000 reagents; this is an unselected part. 762 of them (4.5%) were called active. 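Active calls include both raised and lowered p65 entry, mostly lowered; wells with fewer than 50 cells lack a z-score.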 Raw values are not corrected between plates. Reagent sequences are not shown.

- Screen: 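Find genes required for NF-kappaB p65 moving into the nucleus after LPS in mouse macrophages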 (primary screen)
- Cells: mouse RAW264.7 G9 macrophage reporter cells (GFP-p65, Tnf promoter-mCherry)
- Reagents: siRNA pool against mouse genes, 100 nM
- Timing: 2 days siRNA transfection, then 40 min LPS before fixation
- Challenge: LPS (Salmonella minnesota R595) at 10 ng/ml
- Measured: 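Imaged p65 nuclear translocation ratio, normalised to the plate median, converted to robust z-scores and averaged across two replicates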
- Scale: p65 translocation robust z-score: higher = more nuclear NF-kappaB p65 after LPS than the plate median; nuclear/cytoplasmic p65 ratio: higher = more nuclear NF-kappaB p65
- Active means: 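Called active when z exceeds 3.3 or falls under -1.56 (median of Tlr4 controls), giving activity score of at least 50; no calls for control wells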
- Meaning of the calls: active = hit (p65 shift raised or lowered); inactive = no clear change

no.	Gene	p65 translocation robust z-score	nuclear/cytoplasmic p65 ratio, rep 1	nuclear/cytoplasmic p65 ratio, rep 2	low cell count flag	call
1	Casp7	0.26	1.65	1.66	enough cells to score	inactive
2	Pcdh12	-0.16	1.43	1.39	enough cells to score	inactive
3	Parp9	0.27	1.67	1.83	enough cells to score	inactive
4	Appl2	2.07	1.73	1.64	enough cells to score	inactive
5	Fancm	0.49	1.74	1.69	enough cells to score	inactive
6	Or8k27	0.49	1.88	1.52	enough cells to score	inactive
7	Osgepl1		1.53	0	fewer than 50 cells per well; well left out of scoring	inactive
8	Tmem116	-3.26	1.08	0.977	enough cells to score	active
9	Depp1	-1.29	1.28	1.34	enough cells to score	inactive
10	Smox		0	1.51	fewer than 50 cells per well; well left out of scoring	inactive
11	Tgm4		1.31	1.48	fewer than 50 cells per well; well left out of scoring	inactive
12	Pja1	-0.02	1.44	1.16	enough cells to score	inactive
13	Nup214	-0.24	1.57	1.58	enough cells to score	inactive

Targets listed so far whose target name starts with O or o (2):
Gene	p65 translocation robust z-score	nuclear/cytoplasmic p65 ratio, rep 1	nuclear/cytoplasmic p65 ratio, rep 2	low cell count flag	call
Or8k27	0.49	1.88	1.52	enough cells to score	inactive
Osgepl1		1.53	0	fewer than 50 cells per well; well left out of scoring	inactive

More reagents follow:
no.	Gene	p65 translocation robust z-score	nuclear/cytoplasmic p65 ratio, rep 1	nuclear/cytoplasmic p65 ratio, rep 2	low cell count flag	call
14	Fscn3	-0.2	1.5	1.26	enough cells to score	inactive
15	Csgalnact1		1.19	0.969	fewer than 50 cells per well; well left out of scoring	inactive
16	Nup54		1.31	1.17	fewer than 50 cells per well; well left out of scoring	inactive
17	Sln		1.4	1.36	fewer than 50 cells per well; well left out of scoring	inactive
18	Fgfr3	2.18	2.02	1.67	enough cells to score	inactive
19	Zfp414	0.42	1.56	1.53	enough cells to score	inactive
20	Polr1e	-0.22	1.38	1.24	enough cells to score	inactive
21	Epn1	0.42	1.64	1.54	enough cells to score	inactive
22	Bloc1s5	-0.26	1.75	1.55	enough cells to score	inactive
23	Cisd2		1.2	1.35	fewer than 50 cells per well; well left out of scoring	inactive
24	Zfp521	0.54	1.45	1.35	enough cells to score	inactive
